Structures are written as SMILES. This continues a long series; more values of the same kind are listed elsewhere.

Amino acid sequences for entries named in this document (tags omitted).
UniProt Q61188, whole entry: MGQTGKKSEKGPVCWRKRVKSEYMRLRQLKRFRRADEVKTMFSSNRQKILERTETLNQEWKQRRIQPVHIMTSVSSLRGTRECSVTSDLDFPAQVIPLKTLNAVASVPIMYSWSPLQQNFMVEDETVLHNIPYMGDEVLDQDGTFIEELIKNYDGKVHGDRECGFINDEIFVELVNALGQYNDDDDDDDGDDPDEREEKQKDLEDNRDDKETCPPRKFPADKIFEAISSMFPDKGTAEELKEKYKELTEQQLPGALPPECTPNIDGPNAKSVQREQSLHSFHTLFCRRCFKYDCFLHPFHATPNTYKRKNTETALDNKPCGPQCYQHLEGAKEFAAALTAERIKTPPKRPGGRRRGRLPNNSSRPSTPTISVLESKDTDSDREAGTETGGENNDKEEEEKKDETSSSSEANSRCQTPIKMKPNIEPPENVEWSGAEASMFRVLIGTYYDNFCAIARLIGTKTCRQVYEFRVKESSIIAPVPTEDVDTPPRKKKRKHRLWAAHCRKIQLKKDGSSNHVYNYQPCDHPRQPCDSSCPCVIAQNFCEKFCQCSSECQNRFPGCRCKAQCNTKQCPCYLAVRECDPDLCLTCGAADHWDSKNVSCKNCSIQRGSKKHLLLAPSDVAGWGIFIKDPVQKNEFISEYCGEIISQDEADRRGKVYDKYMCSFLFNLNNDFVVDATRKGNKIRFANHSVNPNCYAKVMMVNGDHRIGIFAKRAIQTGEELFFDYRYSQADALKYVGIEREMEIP

What all share (format): cell-based
For experiment [1], the target named is T1, RNA polymerase II (Mus musculus) (UniProt P08775+Q8CFI7+P97760+A0A3Q4L2S8+Q80UW8+P61219+P62488+Q923G2+P60898+O08740+Q63871+P62876). Nature of the experiment: Inhibition of RNA polymerase II in mouse B16-F1 migrating cells assessed as fold change in Zfp984-RNA stability at 0.1 mM measured by ChIP-seq analysis relative to control cells.
The target in experiment [2] is T1, RNA polymerase II (Mus musculus). Nature of the experiment: Inhibition of RNA polymerase II in mouse B16-F1 migrating cells assessed as fold change in Krr1-RNA stability at 0.1 mM measured by ChIP-seq analysis relative to control cells.
Experiment [3] has the same target. Briefly: Inhibition of RNA polymerase II in mouse B16-F1 migrating cells assessed as fold change in Fnip1-RNA stability at 0.1 mM measured by ChIP-seq analysis relative to control cells.
The target is the same in experiment [4]. Nature of the experiment: Inhibition of RNA polymerase II in mouse B16-F1 migrating cells assessed as fold change in Ccni-RNA stability at 0.1 mM measured by ChIP-seq analysis relative to control cells.
The target is the same in experiment [5]. Nature of the experiment: Inhibition of RNA polymerase II in mouse B16-F1 migrating cells assessed as fold change in Smc4-RNA stability at 0.1 mM measured by ChIP-seq analysis relative to control cells.
The target is the same in experiment [6]. Briefly: Inhibition of RNA polymerase II in mouse B16-F1 migrating cells assessed as fold change in Myo1h-RNA stability at 0.1 mM measured by ChIP-seq analysis relative to control cells.
Experiment [7] has the same target. Nature of the experiment: Inhibition of RNA polymerase II in mouse B16-F1 migrating cells assessed as fold change in Rpe-RNA stability at 0.1 mM measured by ChIP-seq analysis relative to control cells.
For experiment [8] the target is unchanged. Nature of the experiment: Inhibition of RNA polymerase II in mouse B16-F1 migrating cells assessed as fold change in Adk-RNA stability at 0.1 mM measured by ChIP-seq analysis relative to control cells.
The target is the same in experiment [9]. Nature of the experiment: Inhibition of RNA polymerase II in mouse B16-F1 migrating cells assessed as fold change in Stag2-RNA stability at 0.1 mM measured by ChIP-seq analysis relative to control cells.
Experiment [10] has the same target. Nature of the experiment: Inhibition of RNA polymerase II in mouse B16-F1 migrating cells assessed as fold change in Gys1-RNA stability at 0.1 mM measured by ChIP-seq analysis relative to control cells.
Experiment [11] has the same target. Briefly: Inhibition of RNA polymerase II in mouse B16-F1 migrating cells assessed as fold change in Smg8-RNA stability at 0.1 mM measured by ChIP-seq analysis relative to control cells.
The target is the same in experiment [12]. Briefly: Inhibition of RNA polymerase II in mouse B16-F1 migrating cells assessed as fold change in Smc2-RNA stability at 0.1 mM measured by ChIP-seq analysis relative to control cells.
Experiment [13] shares this target. Nature of the experiment: Inhibition of RNA polymerase II in mouse B16-F1 migrating cells assessed as fold change in Gls-RNA stability at 0.1 mM measured by ChIP-seq analysis relative to control cells.
Experiment [14] has the same target. Briefly: Inhibition of RNA polymerase II in mouse B16-F1 migrating cells assessed as fold change in Hnrnpu-RNA stability at 0.1 mM measured by ChIP-seq analysis relative to control cells.
For experiment [15] the target is unchanged. Nature of the experiment: Inhibition of RNA polymerase II in mouse B16-F1 migrating cells assessed as fold change in Apopt1-RNA stability at 0.1 mM measured by ChIP-seq analysis relative to control cells.
For experiment [16] the target is unchanged. Nature of the experiment: Inhibition of RNA polymerase II in mouse B16-F1 migrating cells assessed as fold change in Pds5b-RNA stability at 0.1 mM measured by ChIP-seq analysis relative to control cells.
Experiment [17] shares this target. Briefly: Inhibition of RNA polymerase II in mouse B16-F1 migrating cells assessed as fold change in Dnajc3-RNA stability at 0.1 mM measured by ChIP-seq analysis relative to control cells.
Experiment [18] deals with Histone-lysine N-methyltransferase EZH2 (Mus musculus) (UniProt Q61188). Nature of the experiment: Inhibition of EZH2 in mouse B16-F1 migrating cells assessed as fold change in H3K27me3-buffered regulated Ncapg2-mRNA expression at 3 uM measured by ChIP-seq analysis relative to control cells.
Experiment [19] shares this target. Nature of the experiment: Inhibition of EZH2 in mouse B16-F1 migrating cells assessed as fold change in H3K27me3-independent regulated Tnfsf9-mRNA expression at 3 uM measured by ChIP-seq analysis relative to control cells.
For experiment [20] the target is unchanged. Nature of the experiment: Inhibition of EZH2 in mouse B16-F1 migrating cells assessed as fold change in H3K27me3-buffered regulated Piwil2-mRNA expression at 3 uM measured by ChIP-seq analysis relative to control cells.
The target is the same in experiment [21]. Briefly: Inhibition of EZH2 in mouse B16-F1 migrating cells assessed as fold change in H3K27me3-buffered regulated Atp8b2-mRNA expression at 3 uM measured by ChIP-seq analysis relative to control cells.
Experiment [22] shares this target. Nature of the experiment: Inhibition of EZH2 in mouse B16-F1 migrating cells assessed as fold change in H3K27me3-buffered regulated Pcyt1b-mRNA expression at 3 uM measured by ChIP-seq analysis relative to control cells.
Experiment [23] has the same target. Briefly: Inhibition of EZH2 in mouse B16-F1 migrating cells assessed as fold change in H3K27me3-independent regulated H2-T23-mRNA expression at 3 uM measured by ChIP-seq analysis relative to control cells.
The target is the same in experiment [24]. Briefly: Inhibition of EZH2 in mouse B16-F1 migrating cells assessed as fold change in H3K27me3-buffered regulated Tbc1d16-mRNA expression at 3 uM measured by ChIP-seq analysis relative to control cells.
The target is the same in experiment [25]. Briefly: Inhibition of EZH2 in mouse B16-F1 migrating cells assessed as fold change in H3K27me3-buffered regulated Atg16l2-mRNA expression at 3 uM measured by ChIP-seq analysis relative to control cells.
Experiment [26] has the same target. Nature of the experiment: Inhibition of EZH2 in mouse B16-F1 migrating cells assessed as fold change in H3K27me3-buffered regulated Skp2-mRNA expression at 3 uM measured by ChIP-seq analysis relative to control cells.
Experiment [27] has the same target. Nature of the experiment: Inhibition of EZH2 in mouse B16-F1 migrating cells assessed as fold change in H3K27me3-dependent regulated 5430430B14Rik-mRNA expression at 3 uM measured by ChIP-seq analysis relative to control cells.
Experiment [28] has the same target. Briefly: Inhibition of EZH2 in mouse B16-F1 migrating cells assessed as fold change in H3K27me3-buffered regulated Atg10-mRNA expression at 3 uM measured by ChIP-seq analysis relative to control cells.
For experiment [29] the target is unchanged. Nature of the experiment: Inhibition of EZH2 in mouse B16-F1 migrating cells assessed as fold change in H3K27me3-buffered regulated Tcf4-mRNA expression at 3 uM measured by ChIP-seq analysis relative to control cells.
Experiment [30] has the same target. Nature of the experiment: Inhibition of EZH2 in mouse B16-F1 migrating cells assessed as fold change in H3K27me3-independent regulated Gm15425-mRNA expression at 3 uM measured by ChIP-seq analysis relative to control cells.

Turning to `OC[C@H]1O[C@@H](n2cnc3cc(Cl)c(Cl)cc32)[C@H](O)[C@@H]1O`, the log2FC in experiment [1] was -1.08; in experiment [2], -0.59; in [3], -0.51; in experiment [4], 0.56; in experiment [5] it was -0.84; in [6] it was 0.92. Moreover, the log2FC is -0.96 in experiment [7]; -0.39 in [8]; -0.74 in experiment [9]; 0.84 in experiment [10]; -0.73 in experiment [11]; -1.11 in [12]. In addition, the log2FC in experiment [13] is -0.69; in experiment [14], -0.6; in [15], 0.45; in experiment [16] it was -0.52; in [17], -0.42.
In the case of `CCCc1cc(C)[nH]c(=O)c1CNC(=O)c1cc(-c2ccnc(N3CCN(C)CC3)c2)cc2c1cnn2C(C)C`, the log2FC was -0.42 in [18]; -1.35 in [19]; 1.55 in experiment [20]; -0.46 in experiment [21]; 0.43 in experiment [22]; 0.65 in [23]. The log2FC was 0.6 in [24]; -0.53 in experiment [25]; -0.41 in experiment [26]; 0.64 in experiment [27]; 0.41 in experiment [28]; -0.47 in experiment [29]. Moreover, the log2FC in experiment [30] came to 1.51.

Source of the values: ChEMBL document CHEMBL5674883, “The Heterochromatin Landscape in Migrating Cells and the Importance of H3K27me3 for Associated Transcriptome Alterations” (Cells, 2018).
